According to patent US20220306751A1 (MYTHIC THERAPEUTICS, published 2022):
Substitutions are numbered along the chain they refer to. No constants are given. Whether binding was seen depends on the method and setting. Some binding calls cover weakened binding; strength is not graded here. For some assays here: Sequences can lack the tags named with a protein.

T1: CD123 Protein, His Tag, Acro Biosciences Cat. No. ILA-H52H6 (Homo sapiens (Human)) (UniProt P26951)
T1 sequence: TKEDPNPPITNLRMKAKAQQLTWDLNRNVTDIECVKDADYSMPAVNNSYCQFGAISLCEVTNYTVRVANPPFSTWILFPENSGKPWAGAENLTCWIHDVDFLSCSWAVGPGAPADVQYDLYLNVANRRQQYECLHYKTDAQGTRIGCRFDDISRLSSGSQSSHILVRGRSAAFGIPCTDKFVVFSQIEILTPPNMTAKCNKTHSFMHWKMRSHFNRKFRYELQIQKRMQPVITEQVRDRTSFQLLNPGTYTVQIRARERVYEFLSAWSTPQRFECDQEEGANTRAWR

T2: CD123 protein (R&D Systems Catalog No. 301-R3-025/CF) (Homo sapiens (Human)) (UniProt P26951)
T2 sequence: T1 sequence

B1: MYT2765 (antibody, V domains shown)
VH: QVQLVQSGAEVKKPGASVKVSCKASGHIFTSSIMAWVRQAPGQGLEWIGYIKPYNDGTKYNEKFKGRATLTSDRSTSTAYMELSSLRSEDTAVYYCAREGGNDYYDTMHYWGQGTLVTVSS
VL: DIQMTQSPSSLSASVGDRVTITCRASQDINSYLSWFQQKPGKAPKTLIYRVNRLVDGVPSRFSGSGSGNDYTLTISSLQPEDFATYYCLQYDAFPYTFGQGTKVEIK
B2: MYT2769 (antibody, V domains shown)
VH: B1 VH with H27Y, Y105H, T107H, H109D
VL: B1 VL
B3: MYT2771 (antibody, V domains shown)
VH: B1 VH with H27Y, T107H
VL: B1 VL
B4: MYT2766 (antibody, V domains shown)
VH: B1 VH with A35H, Y105H, T107H, H109D
VL: B1 VL
B5: MYT2772 (antibody, V domains shown)
VH: B1 VH with H27Y, A35H, Y105H, T107H
VL: B1 VL
B6: MYT2768 (antibody, V domains shown)
VH: B1 VH with A35H, T107H
VL: B1 VL
B7: MYT2770 (antibody, V domains shown)
VH: B1 VH with H27Y, Y105H
VL: B1 VL
B8: MYT2767 (antibody, V domains shown)
VH: B1 VH with A35H, Y105H
VL: B1 VL
B9: MYT5489 (antibody, V domains shown)
VH: EVQLLESGGGLVQPGGSLRLSCAVSDYSITSGYYWNWIRQAPGKKLEWMGYISYDGSNNYNPSLKNGRITISRDTSKNTFYLQMNSLRAEDTAVYYCARGEGFYFDSWGQGTLVTVSS
VL: EIVLTQSPGTLSLSPGERATLSCKSSQSLFFGSHQKNYLAWYQQKPGQAPRLLIYWASTRESGIPDRFSGSGSGTDFTLTISRLEPEDFAVYYCQQYYNYPWTFGQGTKLEIK
B10: MYT5483 (antibody, V domains shown)
VH: B9 VH
VL: B9 VL with S28H, H34T
B11: MYT5504 (antibody, V domains shown)
VH: B9 VH
VL: B9 VL with H34T, Q96H
B12: MYT5503 (antibody, V domains shown)
VH: B9 VH
VL: B9 VL with H34T, Q95H
B13: MYT5505 (antibody, V domains shown)
VH: B9 VH
VL: B9 VL with H34T, Y97H
B14: MYT5498 (antibody, V domains shown)
VH: B9 VH
VL: B9 VL with H34T, S58H
B15: MYT5493 (antibody, V domains shown)
VH: B9 VH
VL: B9 VL with H34T, Y38H
B16: MYT5496 (antibody, V domains shown)
VH: B9 VH
VL: B9 VL with H34T, W56H
B17: MYT5511 (antibody, V domains shown)
VH: B9 VH
VL: B9 VL with H34T, T103H
B18: MYT5482 (antibody, V domains shown)
VH: B9 VH
VL: B9 VL with Q27H, H34T
B19: MYT5510 (antibody, V domains shown)
VH: B9 VH
VL: B9 VL with H34T, W102H
B20: MYT5501 (antibody, V domains shown)
VH: B9 VH
VL: B9 VL with H34T, E61H
B21: MYT5509 (antibody, V domains shown)
VH: B9 VH
VL: B9 VL with H34T, P101H
B22: MYT5497 (antibody, V domains shown)
VH: B9 VH
VL: B9 VL with H34T, A57H
B23: MYT5508 (antibody, V domains shown)
VH: B9 VH
VL: B9 VL with H34T, Y100H
B24: MYT5502 (antibody, V domains shown)
VH: B9 VH
VL: B9 VL with H34T, S62H
B25: MYT5506 (antibody, V domains shown)
VH: B9 VH
VL: B9 VL with H34T, Y98H
B26: MYT5507 (antibody, V domains shown)
VH: B9 VH
VL: B9 VL with H34T, N99H
B27: MYT5492 (antibody, V domains shown)
VH: B9 VH
VL: B9 VL with H34T, N37H
B28: MYT5490 (antibody, V domains shown)
VH: B9 VH
VL: B9 VL with H34T, Q35H
B29: MYT5500 (antibody, V domains shown)
VH: B9 VH
VL: B9 VL with H34T, R60H
B30: MYT5499 (antibody, V domains shown)
VH: B9 VH
VL: B9 VL with H34T, T59H
B31: MYT5494 (antibody, V domains shown)
VH: B9 VH
VL: B9 VL with H34T, L39H
B32: MYT5491 (antibody, V domains shown)
VH: B9 VH
VL: B9 VL with H34T, K36H

Molecular target: T1, CD123 Protein, His Tag, Acro Biosciences Cat. No. ILA-H52H6 (Homo sapiens (Human))
Assay: BLI, IgG on anti-human Fc sensor, 50 nM CD123, pH 7.4 and pH 5.4

binding | Binder
binds | B1
binds | B2
binds | B3
binds | B4
binds | B5
binds | B6
binds | B7
binds | B8

Molecular target: T2, CD123 protein (R&D Systems Catalog No. 301-R3-025/CF) (Homo sapiens (Human))
Assay: as above

binding | Binder
binds | B9
binds | B10
binds | B11
binds | B12
binds | B13
binds | B14
binds | B15
binds | B16
binds | B17
binds | B18
binds | B19
binds | B20
binds | B21
binds | B22
binds | B23
binds | B24
binds | B25
binds | B26
binds | B27
binds | B28
binds | B29
binds | B30
binds | B31
binds | B32
